The values below come from article doi:10.1101/683441.

Sequences of proteins named here, by UniProt entry; tags and fusion partners are left off.
UniProt P46935: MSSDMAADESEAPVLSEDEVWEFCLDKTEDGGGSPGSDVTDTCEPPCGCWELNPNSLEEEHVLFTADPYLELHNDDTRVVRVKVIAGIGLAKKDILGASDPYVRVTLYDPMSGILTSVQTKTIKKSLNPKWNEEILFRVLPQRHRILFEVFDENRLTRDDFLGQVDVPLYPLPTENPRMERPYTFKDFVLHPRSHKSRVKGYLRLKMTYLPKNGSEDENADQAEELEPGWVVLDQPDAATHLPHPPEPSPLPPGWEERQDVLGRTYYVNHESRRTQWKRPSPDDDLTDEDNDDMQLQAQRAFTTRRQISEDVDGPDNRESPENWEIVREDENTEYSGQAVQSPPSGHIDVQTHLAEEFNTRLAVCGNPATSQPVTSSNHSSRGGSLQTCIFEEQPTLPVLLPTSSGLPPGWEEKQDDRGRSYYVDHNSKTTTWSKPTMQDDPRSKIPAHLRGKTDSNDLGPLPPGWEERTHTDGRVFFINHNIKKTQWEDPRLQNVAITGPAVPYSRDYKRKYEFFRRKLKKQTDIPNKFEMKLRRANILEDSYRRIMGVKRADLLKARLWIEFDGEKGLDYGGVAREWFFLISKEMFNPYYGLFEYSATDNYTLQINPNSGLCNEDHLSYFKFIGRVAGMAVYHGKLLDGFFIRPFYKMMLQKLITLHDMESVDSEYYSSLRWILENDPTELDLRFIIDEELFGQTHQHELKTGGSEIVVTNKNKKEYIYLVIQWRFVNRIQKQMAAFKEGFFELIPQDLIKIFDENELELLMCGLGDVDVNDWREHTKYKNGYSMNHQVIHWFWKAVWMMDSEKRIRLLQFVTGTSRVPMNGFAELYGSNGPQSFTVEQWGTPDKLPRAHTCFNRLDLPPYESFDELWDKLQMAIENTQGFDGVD
UniProt P23242: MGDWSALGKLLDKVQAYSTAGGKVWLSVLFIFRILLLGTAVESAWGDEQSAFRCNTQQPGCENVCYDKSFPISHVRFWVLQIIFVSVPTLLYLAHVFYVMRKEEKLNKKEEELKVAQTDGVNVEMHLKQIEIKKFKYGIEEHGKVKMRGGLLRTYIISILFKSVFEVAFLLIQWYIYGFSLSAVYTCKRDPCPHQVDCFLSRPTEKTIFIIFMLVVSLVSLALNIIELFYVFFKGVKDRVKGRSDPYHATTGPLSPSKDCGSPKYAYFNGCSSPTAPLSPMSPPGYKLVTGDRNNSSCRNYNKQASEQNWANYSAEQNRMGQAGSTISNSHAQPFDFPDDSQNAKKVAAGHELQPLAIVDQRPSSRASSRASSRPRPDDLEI

This experiment deals with GST-tagged Nedd4-1, full length (UniProt P46935). Nature of the experiment: pull-down.

Results are given in words; binding and its absence hold for the method and conditions named. In cells and extracts the contact can be indirect. Some binding calls cover weakened binding; strength is not graded here. Sequences can lack the tags named with a protein.

As to “HA-tagged Connexin43 (gap junction alpha 1 protein) (from UniProt P23242 1-382)”, the binding result is reported as “binds”.

B1: HA-tagged Kir4.1 (inwardly rectifying K+ channel 4.1) (protein, UniProt Q9JM63 1-379)
chain: MTSVAKVYYSQTTQTESRPLVAPGIRRRRVLTKDGRSNVRMEHIADKRFLYLKDLWTTFIDMQWRYKLLLFSATFAGTWFLFGVVWYLVAVAHGDLLELGPPANHTPCVVQVHTLTGAFLFSLESQTTIGYGFRYISEECPLAIVLLIAQLVLTTILEIFITGTFLAKIARPKKRAETIRFSQHAVVASHNGKPCLMIRVANMRKSLLIGCQVTGKLLQTHQTKEGENIRLNQVNVTFQVDTASDSPFLILPLTFYHVVDETSPLKDLPLRSGEGDFELVLILSGTVESTSATCQVRTSYLPEEILWGYEFTPAISLSASGKYIADFSLFDQVVKVASPSGLRDSTVRYGDPEKLKLEESLREQAEKEGSALSVRISNV
For the molecule B1, the binding entry is given as “binds”.
